{"source": "PubChem BioAssay AID652259 (Drosophila RNAi Screening Center, 2013)", "screen": "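Knock-downs that push a Wingless-driven reporter up or down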 (primary screen)", "cell system": "Drosophila clone 8 imaginal disc epithelial cells", "reagent": "long dsRNA against Drosophila genes", "treatment": "pathway stimulated by co-transfected Wingless expression plasmid", "measurement": "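Dual luciferase reads per well after Wingless plasmid stimulation: reporter firefly light and Renilla control light; activity is firefly divided by Renilla, a ratio not deposited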", "scale": "firefly reporter light: higher = more Wg reporter light, before normalisation; Renilla control light: higher = more transfected or surviving cells", "rule for the call": "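a knock-down is a candidate when at least two out of four statistical tests show it departing from its plate mean; one test alone signals a weak candidate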", "calls": "active = candidate regulator (raises or lowers reporter); inactive = not a candidate", "note": "The deposit covers about 22,000 reagents; below is an unselected part of those with a known target gene and a result. Over the whole deposit, 233 (1.1%) were called active. 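Light values are raw, unnormalised plate reads; the ratio scores behind the reporter calls were not deposited.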 Unmarked entries are inactive. A plus sign joins genes that one reagent is predicted to hit. Not stated in the record: the amount of reagent, the time to read-out, the dose of the treatment."}
The first 3 entries, to show the layout:
{"gene knocked down": "jbug", "DRSC id": "DRSC03952", "firefly reporter light, replicate 1": 16896, "Renilla control light, replicate 1": 8188}
{"gene knocked down": "jbug", "DRSC id": "DRSC04114", "firefly reporter light, replicate 1": 7584, "Renilla control light, replicate 1": 2603}
{"gene knocked down": "jbug", "DRSC id": "DRSC04167", "firefly reporter light, replicate 1": 3345, "firefly reporter light, replicate 2": 8135, "Renilla control light, replicate 1": 797, "Renilla control light, replicate 2": 3945}

The listing, from the start:
{"gene knocked down": "jbug", "DRSC id": "DRSC03952", "firefly reporter light, replicate 1": 16896, "Renilla control light, replicate 1": 8188}
{"gene knocked down": "jbug", "DRSC id": "DRSC04114", "firefly reporter light, replicate 1": 7584, "Renilla control light, replicate 1": 2603}
{"gene knocked down": "jbug", "DRSC id": "DRSC04167", "firefly reporter light, replicate 1": 3345, "firefly reporter light, replicate 2": 8135, "Renilla control light, replicate 1": 797, "Renilla control light, replicate 2": 3945}
{"gene knocked down": "jbug", "DRSC id": "DRSC04388", "firefly reporter light, replicate 1": 2475, "firefly reporter light, replicate 2": 7642, "Renilla control light, replicate 1": 922, "Renilla control light, replicate 2": 2615}
{"gene knocked down": "Phb2", "DRSC id": "DRSC06512", "firefly reporter light, replicate 1": 4602, "Renilla control light, replicate 1": 1157}
{"gene knocked down": "Spn85F", "DRSC id": "DRSC14545", "firefly reporter light, replicate 1": 2552, "Renilla control light, replicate 1": 1139}
{"gene knocked down": "CG11162", "DRSC id": "DRSC19391", "firefly reporter light, replicate 1": 29350, "Renilla control light, replicate 1": 16368}
{"gene knocked down": "CG11162", "DRSC id": "DRSC22538", "firefly reporter light, replicate 1": 3.64e5, "firefly reporter light, replicate 2": 3.57e5, "Renilla control light, replicate 1": 1.61e5, "Renilla control light, replicate 2": 1.43e5}
{"gene knocked down": "robo2", "DRSC id": "DRSC00377", "firefly reporter light, replicate 1": 4016, "firefly reporter light, replicate 2": 10836, "Renilla control light, replicate 1": 1312, "Renilla control light, replicate 2": 3749}
{"gene knocked down": "robo2", "DRSC id": "DRSC00378", "firefly reporter light, replicate 1": 2448, "firefly reporter light, replicate 2": 9729, "Renilla control light, replicate 1": 1241, "Renilla control light, replicate 2": 3170}
{"gene knocked down": "robo2", "DRSC id": "DRSC00686", "firefly reporter light, replicate 1": 2533, "firefly reporter light, replicate 2": 8279, "Renilla control light, replicate 1": 969, "Renilla control light, replicate 2": 2832}
{"gene knocked down": "robo2", "DRSC id": "DRSC00691", "firefly reporter light, replicate 1": 6314, "Renilla control light, replicate 1": 3108}
{"gene knocked down": "CG3701 (retired record)", "DRSC id": "DRSC04408", "firefly reporter light, replicate 1": 3920, "firefly reporter light, replicate 2": 4681, "Renilla control light, replicate 1": 377, "Renilla control light, replicate 2": 2662}
{"gene knocked down": "CG3701 (retired record)", "DRSC id": "DRSC04409", "firefly reporter light, replicate 1": 4003, "firefly reporter light, replicate 2": 5428, "Renilla control light, replicate 1": 536, "Renilla control light, replicate 2": 2746}
{"gene knocked down": "CG8321", "DRSC id": "DRSC07148", "firefly reporter light, replicate 1": 8961, "Renilla control light, replicate 1": 2601}
{"gene knocked down": "CG13244", "DRSC id": "DRSC21642", "firefly reporter light, replicate 1": 4.19e5, "firefly reporter light, replicate 2": 4.21e5, "Renilla control light, replicate 1": 1.92e5, "Renilla control light, replicate 2": 1.73e5}
{"gene knocked down": "CG14331", "DRSC id": "DRSC14810", "firefly reporter light, replicate 1": 12972, "Renilla control light, replicate 1": 2992}
{"gene knocked down": "CG9581", "DRSC id": "DRSC20695", "firefly reporter light, replicate 1": 4056, "firefly reporter light, replicate 2": 10581, "Renilla control light, replicate 1": 1544, "Renilla control light, replicate 2": 4091}
{"gene knocked down": "CG9581", "DRSC id": "DRSC22247", "firefly reporter light, replicate 1": 4.29e5, "firefly reporter light, replicate 2": 5.35e5, "Renilla control light, replicate 1": 1.87e5, "Renilla control light, replicate 2": 2.96e5}
{"gene knocked down": "CG30393", "DRSC id": "DRSC04253", "firefly reporter light, replicate 1": 2512, "firefly reporter light, replicate 2": 5792, "Renilla control light, replicate 1": 615, "Renilla control light, replicate 2": 2968}
{"gene knocked down": "Eig71Ec", "DRSC id": "DRSC11150", "firefly reporter light, replicate 1": 6138, "Renilla control light, replicate 1": 2740}
{"gene knocked down": "Bap170", "DRSC id": "DRSC04964", "firefly reporter light, replicate 1": 18273, "Renilla control light, replicate 1": 8480}
{"gene knocked down": "Bap170", "DRSC id": "DRSC21826", "firefly reporter light, replicate 1": 5.85e5, "firefly reporter light, replicate 2": 6.21e5, "Renilla control light, replicate 1": 3.41e5, "Renilla control light, replicate 2": 2.81e5}
{"gene knocked down": "CG1172", "DRSC id": "DRSC12182", "firefly reporter light, replicate 1": 20089, "Renilla control light, replicate 1": 7059}
{"gene knocked down": "CG1172", "DRSC id": "DRSC21954", "firefly reporter light, replicate 1": 7.68e5, "firefly reporter light, replicate 2": 7.71e5, "Renilla control light, replicate 1": 3.27e5, "Renilla control light, replicate 2": 3.19e5}
{"gene knocked down": "Drsl5", "DRSC id": "DRSC08159", "firefly reporter light, replicate 1": 6501, "Renilla control light, replicate 1": 3286}
{"gene knocked down": "CG13380 + CG4174", "DRSC id": "DRSC09988", "firefly reporter light, replicate 1": 4088, "Renilla control light, replicate 1": 1496}
{"gene knocked down": "CG13380 + CG4174", "DRSC id": "DRSC10406", "firefly reporter light, replicate 1": 5304, "Renilla control light, replicate 1": 2681}
{"gene knocked down": "CG15196", "DRSC id": "DRSC19643", "firefly reporter light, replicate 1": 11552, "Renilla control light, replicate 1": 5719}
{"gene knocked down": "CG6357", "DRSC id": "DRSC06979", "firefly reporter light, replicate 1": 12092, "Renilla control light, replicate 1": 3785}
{"gene knocked down": "Rala", "DRSC id": "DRSC18703", "firefly reporter light, replicate 1": 14739, "Renilla control light, replicate 1": 10086}
{"gene knocked down": "CG32228", "DRSC id": "DRSC22296", "firefly reporter light, replicate 1": 4.30e5, "firefly reporter light, replicate 2": 3.81e5, "Renilla control light, replicate 1": 1.77e5, "Renilla control light, replicate 2": 1.59e5}
